Taken from: PubChem BioAssay AID686938 (Drosophila RNAi Screening Center, 2013)
In all, the deposit lists about 23,000 reagents; shown is a random part of those with a known target gene and a result. Over the whole deposit, 75 (0.33%) were called active. 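Raw plate signals without normalisation; calls rest on plate z-scores that were not deposited; ratio present for only 364 wells.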 Not given: the dose of the treatment.

Assay: 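Looking for CRAC channel components and the factors controlling them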 (primary screen)
Cell system: Drosophila S2R+ cells
Reagents: long dsRNA against Drosophila genes, about 0.25 µg dsRNA per well, roughly 10,000 cells
Duration: 5 days of knock-down before the calcium assay
Challenge: thapsigargin (SERCA pump blocker) to empty calcium stores; entry signal taken 4 min after adding it
Detection: 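Per-well fluo-4 fluorescence in two replicates, unnormalised, measured in resting cells and 4 min after store depletion by the SERCA blocker thapsigargin; ratio of the two present in few wells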
Scale: calcium entry signal: higher = stronger calcium signal after store depletion; resting calcium signal: higher = higher resting calcium signal
Rule for the call: 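Hit if the duplicate-averaged plate z-score for entry over resting signal is under −3; wells with weak total dye signal (Fmax z < −2) or more than 5 off-targets removed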
Meaning of the calls: active = strongly reduced calcium entry; inactive = no strong reduction

{"Target gene": "Pfdn5", "dsRNA": "DRSC16183", "calcium entry signal, replicate 1 (fluorescence units)": 4.11e7, "calcium entry signal, replicate 2 (fluorescence units)": 2.76e7, "resting calcium signal, replicate 1 (fluorescence units)": 1.89e7, "resting calcium signal, replicate 2 (fluorescence units)": 1.22e7, "call": "inactive"}
{"Target gene": "CG11843", "dsRNA": "DRSC14401", "calcium entry signal, replicate 1 (fluorescence units)": 3.48e7, "calcium entry signal, replicate 2 (fluorescence units)": 6.06e7, "resting calcium signal, replicate 1 (fluorescence units)": 1.81e7, "resting calcium signal, replicate 2 (fluorescence units)": 2.27e7, "call": "inactive"}
{"Target gene": "asRNA:CR31084", "dsRNA": "DRSC21649", "calcium entry signal, replicate 1 (fluorescence units)": 3.83e7, "calcium entry signal, replicate 2 (fluorescence units)": 3.67e7, "resting calcium signal, replicate 1 (fluorescence units)": 1.90e7, "resting calcium signal, replicate 2 (fluorescence units)": 1.60e7, "call": "inactive"}
{"Target gene": "RFeSP", "dsRNA": "DRSC00702", "calcium entry signal, replicate 1 (fluorescence units)": 4.10e7, "calcium entry signal, replicate 2 (fluorescence units)": 4.92e7, "resting calcium signal, replicate 1 (fluorescence units)": 1.76e7, "resting calcium signal, replicate 2 (fluorescence units)": 1.83e7, "call": "inactive"}
{"Target gene": "nonA-l", "dsRNA": "DRSC17017", "calcium entry signal, replicate 1 (fluorescence units)": 3.01e7, "calcium entry signal, replicate 2 (fluorescence units)": 4.44e7, "resting calcium signal, replicate 1 (fluorescence units)": 1.39e7, "resting calcium signal, replicate 2 (fluorescence units)": 5.23e7, "call": "inactive"}
{"Target gene": "Unc-115a", "dsRNA": "DRSC12749", "calcium entry signal, replicate 1 (fluorescence units)": 3.03e7, "calcium entry signal, replicate 2 (fluorescence units)": 5.31e7, "resting calcium signal, replicate 1 (fluorescence units)": 1.48e7, "resting calcium signal, replicate 2 (fluorescence units)": 2.11e7, "call": "inactive"}
{"Target gene": "rec", "dsRNA": "DRSC14998", "calcium entry signal, replicate 1 (fluorescence units)": 2.62e7, "calcium entry signal, replicate 2 (fluorescence units)": 4.74e7, "resting calcium signal, replicate 1 (fluorescence units)": 1.36e7, "resting calcium signal, replicate 2 (fluorescence units)": 6.07e7, "call": "inactive"}
{"Target gene": "rec", "dsRNA": "DRSC15656", "calcium entry signal, replicate 1 (fluorescence units)": 2.89e7, "calcium entry signal, replicate 2 (fluorescence units)": 4.72e7, "resting calcium signal, replicate 1 (fluorescence units)": 1.43e7, "resting calcium signal, replicate 2 (fluorescence units)": 6.08e7, "call": "inactive"}
{"Target gene": "CG14537", "dsRNA": "DRSC02395", "calcium entry signal, replicate 1 (fluorescence units)": 3.12e7, "calcium entry signal, replicate 2 (fluorescence units)": 3.72e7, "resting calcium signal, replicate 1 (fluorescence units)": 1.47e7, "resting calcium signal, replicate 2 (fluorescence units)": 1.69e7, "call": "inactive"}
{"Target gene": "CG5565", "dsRNA": "DRSC00690", "calcium entry signal, replicate 1 (fluorescence units)": 4.16e7, "calcium entry signal, replicate 2 (fluorescence units)": 5.15e7, "resting calcium signal, replicate 1 (fluorescence units)": 1.91e7, "resting calcium signal, replicate 2 (fluorescence units)": 2.26e7, "call": "inactive"}
{"Target gene": "sws", "dsRNA": "DRSC18843", "calcium entry signal, replicate 1 (fluorescence units)": 6.86e7, "calcium entry signal, replicate 2 (fluorescence units)": 3.35e7, "resting calcium signal, replicate 1 (fluorescence units)": 3.03e7, "resting calcium signal, replicate 2 (fluorescence units)": 1.85e7, "call": "inactive"}
{"Target gene": "RIOK2", "dsRNA": "DRSC14413", "calcium entry signal, replicate 1 (fluorescence units)": 2.94e7, "calcium entry signal, replicate 2 (fluorescence units)": 3.35e7, "resting calcium signal, replicate 1 (fluorescence units)": 1.64e7, "resting calcium signal, replicate 2 (fluorescence units)": 1.60e7, "call": "inactive"}
{"Target gene": "mRpS35", "dsRNA": "DRSC08551", "calcium entry signal, replicate 1 (fluorescence units)": 3.70e7, "calcium entry signal, replicate 2 (fluorescence units)": 4.42e7, "resting calcium signal, replicate 1 (fluorescence units)": 1.73e7, "resting calcium signal, replicate 2 (fluorescence units)": 1.73e7, "call": "inactive"}
{"Target gene": "CG9692", "dsRNA": "DRSC11091", "calcium entry signal, replicate 1 (fluorescence units)": 3.61e7, "calcium entry signal, replicate 2 (fluorescence units)": 6.23e7, "resting calcium signal, replicate 1 (fluorescence units)": 1.87e7, "resting calcium signal, replicate 2 (fluorescence units)": 2.34e7, "call": "inactive"}
{"Target gene": "nht", "dsRNA": "DRSC01976", "calcium entry signal, replicate 1 (fluorescence units)": 3.68e7, "calcium entry signal, replicate 2 (fluorescence units)": 3.99e7, "resting calcium signal, replicate 1 (fluorescence units)": 1.59e7, "resting calcium signal, replicate 2 (fluorescence units)": 1.90e7, "call": "inactive"}
{"Target gene": "Reph", "dsRNA": "DRSC00634", "calcium entry signal, replicate 1 (fluorescence units)": 5.70e7, "resting calcium signal, replicate 1 (fluorescence units)": 2.63e7, "call": "inactive"}
{"Target gene": "Reph", "dsRNA": "DRSC22031", "calcium entry signal, replicate 1 (fluorescence units)": 3.30e7, "calcium entry signal, replicate 2 (fluorescence units)": 5.21e7, "resting calcium signal, replicate 1 (fluorescence units)": 1.62e7, "resting calcium signal, replicate 2 (fluorescence units)": 2.42e7, "call": "inactive"}
{"Target gene": "RpL24", "dsRNA": "DRSC03185", "calcium entry signal, replicate 1 (fluorescence units)": 1.83e7, "calcium entry signal, replicate 2 (fluorescence units)": 1.29e7, "resting calcium signal, replicate 1 (fluorescence units)": 1.12e7, "resting calcium signal, replicate 2 (fluorescence units)": 8.31e6, "call": "inactive"}
{"Target gene": "Cep89", "dsRNA": "DRSC07110", "calcium entry signal, replicate 1 (fluorescence units)": 4.23e7, "calcium entry signal, replicate 2 (fluorescence units)": 3.76e7, "resting calcium signal, replicate 1 (fluorescence units)": 2.36e7, "resting calcium signal, replicate 2 (fluorescence units)": 1.76e7, "call": "inactive"}
{"Target gene": "CG14518", "dsRNA": "DRSC14870", "calcium entry signal, replicate 1 (fluorescence units)": 3.40e7, "calcium entry signal, replicate 2 (fluorescence units)": 5.65e7, "resting calcium signal, replicate 1 (fluorescence units)": 1.81e7, "resting calcium signal, replicate 2 (fluorescence units)": 2.45e7, "call": "inactive"}
{"Target gene": "CG10822", "dsRNA": "DRSC06005", "calcium entry signal, replicate 1 (fluorescence units)": 5.80e7, "calcium entry signal, replicate 2 (fluorescence units)": 5.21e7, "resting calcium signal, replicate 1 (fluorescence units)": 2.64e7, "resting calcium signal, replicate 2 (fluorescence units)": 2.53e7, "call": "inactive"}

A portion taken from the entries so far, as a working copy:
{"Target gene": "nht", "dsRNA": "DRSC01976", "calcium entry signal, replicate 1 (fluorescence units)": 3.68e7, "calcium entry signal, replicate 2 (fluorescence units)": 3.99e7, "resting calcium signal, replicate 1 (fluorescence units)": 1.59e7, "resting calcium signal, replicate 2 (fluorescence units)": 1.90e7, "call": "inactive"}
{"Target gene": "Reph", "dsRNA": "DRSC00634", "calcium entry signal, replicate 1 (fluorescence units)": 5.70e7, "resting calcium signal, replicate 1 (fluorescence units)": 2.63e7, "call": "inactive"}
